Publication PMC2651596
Results are given in words; binding and its absence hold for the method and conditions named. Binding seen in cells or lysates may run through a third protein. Binding can be weak; no strength is given.

Tests used:
Assay in all cases: pull-down; GST fusion kinase bound to glutathione sepharose, incubated with 35S-labeled substrate; 4°C, 40 minutes, 20 mM Tris pH 7.5, 150 mM NaCl, 0.5% Nonidet P-40, 1 mM DTT; full-length CKIε and CKIα→ε constructs dephosphorylated with SAP, or CKIε autophosphorylated with ATP, on the resin; only the target purified
[1] = target: GST-CKIεΔC (Xenopus laevis)
[2] = target: GST-CKIεΔΔC (Xenopus laevis)
[3] = target: full-length Xenopus CKIε fused to GST, dephosphorylated (Xenopus laevis)

Measured: binding

B1: Xenopus Dishevelled, 35S-labelled (protein, UniProt P51142 1-736)
chain: MAETKVIYHLDEEETPYLVKVPVPATDIRLRDFKAALGRGHAKYFFKAMDQDFGVVKEEISDDNAKLPCFNDRVVSWLASSEGSQPDSAPPAPATEVRPEPPPPVPPPIPPPPAERTSGIGDSRPPSFHPNVSGSTEQLDQDNESVISMRRDRVRRRESSEQAGVGRGVNGRTERHLSGYESSSTLLTSEIETSICDSEEDDTMSRFSSSTEQSSASRLLKRHRRRRKQRPPRLERTSSFSSVTDSTMSLNIITVTLNMEKYNFLGISIVGQSNERGDGGIYIGSIMKGGAVAADGRIEPGDMLLQVNDINFENMSNDDAVRVLRDIVHKPGPIVLTVAKCWDPSPQGYFTLPRNEPIHPIDPAAWVSHSAALSGSFPVYPGSASMSSMTSSTSVTETELSHALPPVSLFSLSVHTDLASVVKVMASPESGLEVRDRMWLKITIPNAFLGSDVVDWLYHHVEGFQDRREARKFASNLLKAGFIRHTVNKITFSEQCYYIFGDLTGCENYMTNLSLNDNDGSSGASDQDTLAPLPLPGASPWPLLPTFSYQYQAPHPYSTQPPAYHELSSYSYGMGSAGSQHSEGSRSSGSNRSDGGRGMQKDDRSGVAGVGGGDSKSGSGSESEYSTRSSIRRVGGGEAGPPSERSTSSRLPPHHPPSVHSYAAPGVPLSYNPMMLMMMPPPPLPPPGVCPPNSSVPPGAPPLVRDLASVPPELTATRQSFHMAMGNPSEFFVDVM
modifications: 35S-methionine label
binds: all assays above
